Data reported in paper PMC3199733, “Expression, purification, electron microscopy, N-glycosylation mutagenesis and molecular modeling of human P2X4 and Dictyostelium discoideum P2XA” (Biochimica et Biophysica Acta, 2011).
Results are given in words; binding and its absence hold for the method and conditions named. Where a sequence is shown, tags or fusion partners need not be part of it.

Biological target: human P2X4-(His)10 (human) (UniProt Q99571)
Assay: native gel or EMSA; PFO-PAGE with anti-His Western blot of Sf9 membranes solubilised in 1% (w/v) SDS (control lane)

B1: human P2X4-(His)10 (receptor, UniProt Q99571 1-388, looked up)
chain: MAGCCAALAAFLFEYDTPRIVLIRSRKVGLMNRAVQLLILAYVIGWVFVWEKGYQETDSVVSSVTTKVKGVAVTNTSKLGFRIWDVADYVIPAQEENSLFVMTNVILTMNQTQGLCPEIPDATTVCKSDASCTAGSAGTHSNGVSTGRCVAFNGSVKTCEVAAWCPVEDDTHVPQPAFLKAAENFTLLVKNNIWYPKFNFSKRNILPNITTTYLKSCIYDAKTDPFCPIFRLGKIVENAGHSFQDMAVEGGIMGIQVNWDCNLDRAASLCLPRYSFRRLDTRDVEHNVSPGYNFRFAKYYRDLAGNEQRTLIKAYGIRFDIIVFGKAGKFDIIPTMINIGSGLALLGMATVLCDIIVLYCMKKRLYYREKKYKYVEDYEQGLASELDQ
notes: human P2X4 receptor, full-length wild type; N-glycosylated (insect-cell type); also called hP2X4; source: Sf9 cells, baculovirus-infected; in membranes, untreated or detergent-solubilised
binding: no binding (condition: solubilised in 1% (w/v) SDS)
